Reference: patent publication EP0522596A1, “Method and means for inducing constriction of the pupil in the eye” (Kabi Pharmacia AB, priority 1989, dated 1993)
At least one peptide structure holds a part that was inferred or is arguable (an end, a ring closure or a residue). Square brackets hold non-standard residues; d marks the D form. Peptide text beside a SMILES is read from it. sY = N[C@@H](Cc1ccc(OS(=O)(=O)O)cc1)C(=O)O

What was measured:
[1] = tested on: iris sphincter muscle isolated from monkey; assay: Isometric contraction of isolated monkey iris sphincter in muscle bath, cumulated dose-response; set-up: species or system Macaca fascicularis
pupil [2] = assay: Miosis after injection into the anterior chamber of atropine-treated, anesthetized monkeys (pupil diameter); assay type: in vivo, Macaca fascicularis; settings: for dose giving a nearly maximal effect (miosis) / dose giving a half-maximal effect (miosis): injected into the anterior chamber
pupil [3] = assay: Miosis in the rabbit; assay type: in vivo
[4] = tested on: sphincter muscle of human iris; assay: Contraction of isolated human iris sphincter muscle in tissue bath; settings: in vitro
pupil [5] = assay: Corneal application (eye drops) of CCK-8 in atropine-treated monkeys, pupil size; assay type: in vivo

Compound: CSCC[C@H](NC(=O)[C@@H](N)Cc1c[nH]c2ccccc12)C(=O)N[C@@H](CC(=O)O)C(=O)N[C@@H](Cc1ccccc1)C(N)=O [C-terminal tetrapeptide]
- contraction of the iris sphincter muscle isolated from monkey ([1]; in vitro): not
- muscle contraction ([1]; total dose of 86 µg dispersed in the 10 ml tissue bath): no muscle contraction was obtained

Compound: CC[C@H](C)[C@H](NC(=O)[C@H](CCCNC(=N)N)NC(=O)[C@H](Cc1c[nH]cn1)NC(=O)[C@H](CO)NC(=O)[C@@H]1CCCN1C(=O)[C@H](CC(=O)O)NC(=O)[C@H](CC(C)C)NC(=O)[C@H](CO)NC(=O)[C@H](CCC(N)=O)NC(=O)[C@H](CC(C)C)NC(=O)[C@H](CC(N)=O)NC(=O)[C@H](CCCCN)NC(=O)[C@@H](NC(=O)[C@H](CCSC)NC(=O)[C@H](CO)NC(=O)[C@@H](NC(=O)[C@H](CCCNC(=N)N)NC(=O)CNC(=O)[C@H](CO)NC(=O)[C@@H]1CCCN1C(=O)[C@H](C)NC(=O)[C@@H](N)CCCCN)C(C)C)[C@@H](C)CC)C(=O)N[C@@H](CO)C(=O)N[C@@H](CC(=O)O)C(=O)N[C@@H](CCCNC(=N)N)C(=O)N[C@@H](CC(=O)O)C(=O)N[C@@H](Cc1ccc(OS(=O)(=O)O)cc1)C(=O)N[C@@H](CCSC)C(=O)NCC(=O)N[C@@H](Cc1c[nH]c2ccccc12)C(=O)N[C@@H](CCSC)C(=O)N[C@@H](CC(=O)O)C(=O)N[C@@H](Cc1ccccc1)C(N)=O [CCK, cholecystokinin] (H-KAPSGRVSMIKNLQSLDPSHRISDRD[sY]MGWMDF-NH2)
- dose giving a nearly maximal effect (miosis) (pupil [2]; monkeys): 1 pmol
- dose giving a half-maximal effect (miosis) (pupil [2]; monkeys (Macaca fascicularis)): about 0.21 pmol
- dose giving a half-maximal effect (miosis) (pupil [2]; monkeys, mass equivalent): ≈ 800 picograms
- dose giving a nearly maximal effect (miosis) (pupil [2]; monkeys, mass equivalent): ≈ 3.9 nanograms
- miotic effect in monkeys (pupil [2]; monkeys (Macaca fascicularis)): very potent miotic effect
- induction of miosis in the rabbit (pupil [3]): does not induce miosis

Compound: CSCC[C@H](NC(=O)[C@H](Cc1ccc(OS(=O)(=O)O)cc1)NC(=O)[C@@H](N)CC(=O)O)C(=O)NCC(=O)N[C@@H](Cc1c[nH]c2ccccc12)C(=O)N[C@@H](CCSC)C(=O)N[C@@H](CC(=O)O)C(=O)N[C@@H](Cc1ccccc1)C(N)=O [CCK-8]
- effect on isolated human pupil sphincter [4]: comparable to the in vitro effect on monkeys
- effect on pupil size upon administration in the form of eye drops (pupil [5]; corneal application): decrease of pupil size
- time after start at which pupil size decrease was observed in the treated eye (pupil [5]; drop of 6-12 µl of 250 ng/µl on the cornea every ten minutes): 60 min
- potency relative to the whole CCK molecule (pupil [2]; injection into the anterior chamber, monkey eyes): about 10 times
- relative potency on monkey iris in vitro, CCK versus C-terminal octapeptide ([1]; in vitro): the more potent one of these two
